Laboratory results published in publication PMC12551392.
No constants are given. Whether binding was seen depends on the method and setting. Binding seen in cells or lysates may run through a third protein. Some results given as binding are weak or reduced against the parent protein; the word gives no strength. Each block holds one substance with its values, some of them ahead of it.

The chains behind the UniProt entries cited, without tags or fusion partners.
UniProt P25490: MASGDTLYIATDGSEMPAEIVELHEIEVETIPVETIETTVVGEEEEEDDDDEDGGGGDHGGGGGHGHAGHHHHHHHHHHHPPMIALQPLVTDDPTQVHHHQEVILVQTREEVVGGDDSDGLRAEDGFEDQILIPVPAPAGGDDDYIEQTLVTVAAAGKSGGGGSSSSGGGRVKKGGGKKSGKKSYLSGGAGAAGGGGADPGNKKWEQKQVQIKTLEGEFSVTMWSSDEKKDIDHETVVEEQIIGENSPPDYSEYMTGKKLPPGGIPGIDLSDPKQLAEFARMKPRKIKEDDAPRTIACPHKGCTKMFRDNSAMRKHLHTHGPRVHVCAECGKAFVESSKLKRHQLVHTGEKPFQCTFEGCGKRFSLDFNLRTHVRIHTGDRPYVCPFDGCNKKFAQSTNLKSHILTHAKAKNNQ
UniProt Q00899: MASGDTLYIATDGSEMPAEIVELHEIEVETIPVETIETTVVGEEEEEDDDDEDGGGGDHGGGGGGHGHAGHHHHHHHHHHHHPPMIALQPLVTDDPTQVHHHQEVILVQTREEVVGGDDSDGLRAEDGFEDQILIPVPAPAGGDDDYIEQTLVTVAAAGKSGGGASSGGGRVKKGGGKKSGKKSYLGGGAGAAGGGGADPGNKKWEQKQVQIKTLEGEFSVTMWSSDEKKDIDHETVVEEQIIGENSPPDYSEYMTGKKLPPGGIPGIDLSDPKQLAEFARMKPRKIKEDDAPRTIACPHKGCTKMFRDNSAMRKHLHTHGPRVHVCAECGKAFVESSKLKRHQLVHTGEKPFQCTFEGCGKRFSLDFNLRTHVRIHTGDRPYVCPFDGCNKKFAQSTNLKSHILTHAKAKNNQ
UniProt O15047: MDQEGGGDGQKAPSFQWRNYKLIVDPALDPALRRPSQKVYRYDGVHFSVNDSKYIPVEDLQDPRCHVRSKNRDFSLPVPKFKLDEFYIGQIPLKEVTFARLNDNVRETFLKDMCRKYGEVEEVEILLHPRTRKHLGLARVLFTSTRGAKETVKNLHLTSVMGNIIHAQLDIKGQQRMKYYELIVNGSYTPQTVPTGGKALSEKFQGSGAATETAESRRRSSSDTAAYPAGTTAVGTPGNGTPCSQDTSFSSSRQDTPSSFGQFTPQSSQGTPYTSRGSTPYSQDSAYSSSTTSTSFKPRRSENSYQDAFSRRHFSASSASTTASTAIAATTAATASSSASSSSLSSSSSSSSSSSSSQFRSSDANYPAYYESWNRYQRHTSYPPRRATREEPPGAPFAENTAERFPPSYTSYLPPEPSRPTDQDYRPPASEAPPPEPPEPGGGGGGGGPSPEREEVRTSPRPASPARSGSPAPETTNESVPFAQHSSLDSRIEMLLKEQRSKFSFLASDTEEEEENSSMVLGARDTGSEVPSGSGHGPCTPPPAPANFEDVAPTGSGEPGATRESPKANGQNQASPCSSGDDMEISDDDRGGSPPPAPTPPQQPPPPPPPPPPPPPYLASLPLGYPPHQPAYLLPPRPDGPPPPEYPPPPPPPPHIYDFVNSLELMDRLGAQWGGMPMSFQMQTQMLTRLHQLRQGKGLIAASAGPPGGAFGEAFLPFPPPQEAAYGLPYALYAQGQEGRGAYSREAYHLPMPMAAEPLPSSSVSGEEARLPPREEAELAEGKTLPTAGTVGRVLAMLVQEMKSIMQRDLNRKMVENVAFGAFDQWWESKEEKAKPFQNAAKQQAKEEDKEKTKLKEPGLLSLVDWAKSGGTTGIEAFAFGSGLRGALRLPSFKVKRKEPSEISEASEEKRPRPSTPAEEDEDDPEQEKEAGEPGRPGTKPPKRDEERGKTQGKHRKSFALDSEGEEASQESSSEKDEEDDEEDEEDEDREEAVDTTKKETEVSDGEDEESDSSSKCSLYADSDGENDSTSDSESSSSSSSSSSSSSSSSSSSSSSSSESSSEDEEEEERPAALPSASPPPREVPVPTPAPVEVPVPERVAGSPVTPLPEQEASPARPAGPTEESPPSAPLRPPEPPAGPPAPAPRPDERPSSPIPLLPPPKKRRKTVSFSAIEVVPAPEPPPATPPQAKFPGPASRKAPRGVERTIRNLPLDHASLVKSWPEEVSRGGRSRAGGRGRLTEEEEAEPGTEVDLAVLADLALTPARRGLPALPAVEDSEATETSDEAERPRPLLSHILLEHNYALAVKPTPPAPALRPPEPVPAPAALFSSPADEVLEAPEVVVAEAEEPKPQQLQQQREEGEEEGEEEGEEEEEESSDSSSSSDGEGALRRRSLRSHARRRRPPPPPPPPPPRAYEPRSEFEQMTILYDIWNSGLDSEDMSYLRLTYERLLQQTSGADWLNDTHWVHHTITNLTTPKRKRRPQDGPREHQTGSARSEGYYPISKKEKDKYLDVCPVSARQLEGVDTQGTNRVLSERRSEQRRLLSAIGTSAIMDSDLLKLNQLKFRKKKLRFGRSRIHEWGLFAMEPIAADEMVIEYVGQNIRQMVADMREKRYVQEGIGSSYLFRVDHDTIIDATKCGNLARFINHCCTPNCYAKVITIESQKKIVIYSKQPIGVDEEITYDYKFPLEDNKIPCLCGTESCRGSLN
UniProt Q8BFQ4: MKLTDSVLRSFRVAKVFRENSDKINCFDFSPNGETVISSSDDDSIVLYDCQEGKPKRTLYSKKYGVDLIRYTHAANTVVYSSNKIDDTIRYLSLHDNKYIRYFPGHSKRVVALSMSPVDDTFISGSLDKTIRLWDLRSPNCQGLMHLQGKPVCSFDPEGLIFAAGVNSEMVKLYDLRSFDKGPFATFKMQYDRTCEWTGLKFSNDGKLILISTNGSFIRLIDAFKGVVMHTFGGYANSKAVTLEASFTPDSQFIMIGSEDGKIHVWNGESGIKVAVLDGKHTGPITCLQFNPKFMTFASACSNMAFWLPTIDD

Columns and labels:
[1] = molecular target: Yin Yang 1 (YY1), human (human (endogenous in hESC-VSMCs)) (UniProt P25490); experiment: co-IP; whole-cell extracts treated with DNase I; reciprocal co-IP with anti-YY1 and anti-Set1A antibodies
[2] = molecular target: Yin Yang 1 (YY1), human (human (endogenous in hESC-VSMCs)) (UniProt P25490); experiment: co-IP; endogenous proteins of hESC-VSMCs; protein extracted, precipitated with an anti-YY1 antibody, an anti-SET1A antibody or IgG, then immunoblot; also after lentivirus-mediated overexpression of YY1
[3] = molecular target: Yin Yang 1 (YY1), mouse (mouse (endogenous in murine aortic media)) (UniProt Q00899); experiment: co-IP; endogenous proteins of murine aortic media; protein extracted, precipitated with an anti-YY1 antibody or IgG (negative control), then immunoblot
[4] = molecular target: SET1A, human (human (endogenous in hESC-VSMCs)) (UniProt O15047); experiment: co-IP; whole-cell extracts treated with DNase I; reciprocal co-IP with anti-YY1 and anti-Set1A antibodies
[5] = molecular target: SET1A, human (human (endogenous in hESC-VSMCs)) (UniProt O15047); experiment: co-IP; endogenous proteins of hESC-VSMCs; protein extracted, precipitated with an anti-YY1 antibody, an anti-SET1A antibody or IgG, then immunoblot; also after lentivirus-mediated overexpression of YY1

binding [1]: binds
binding [2]: binds
Substance: SET1A, human (from UniProt O15047 1-1707) (enzyme)

binding [3]: binds
Substance: Wdr82, mouse (from UniProt Q8BFQ4 1-313)

binding [4]: binds
binding [5]: binds
Substance: Yin Yang 1 (YY1), human (from UniProt P25490 1-414)
